Assay results reported in PubChem BioAssay AID2685 (National Center for Advancing Translational Sciences (NCATS), 2010).
Some of the results follow. Shown are side measurements of this screen, not its main read-out; they come without a call. Compounds called inactive in the main read-out are mostly missing here. Words in brackets tell the shape of the fitted curve; partial curves, single points and poor fits give uncertain potencies.

Assay: qHTS Assay for Lipid Storage Modulators in Drosophila S3 Cells;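 on cell number change: cells counted by Cell Tracker Red CMTPX staining in the red channel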
Conditions: BODIPY lipid droplet fluorescence, 18-24 h; for cell number change: measured here: cell count max response, cells fed with added oleic acid
In short: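 Laser-scanning cytometry quantifies lipid droplet accumulation (500–530 nm total intensity; droplet/cell object ratio) in oleic acid-fed (400 uM added) Drosophila S3 cells treated with a concentration series. 20 uM Triacsin C defined 100% inhibition.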

[1] = measured here: lipid fluorescence (Fed channel) AC50, cells fed with added oleic acid
[2] = measured here: cell number channel AC50, cells fed with added oleic acid

| Compound | cell number change | AC50 [1] | AC50 [2] |
| --- | --- | --- | --- |
| Cc1ccc(C(=O)C2CCN(CC(=O)Nc3nc(C)cs3)CC2)cc1 | -17.4% | 0.92 µM [rising, full curve, poor fit] |  |
| Cc1ccc(N(Cc2ccccc2)C(=O)c2ccc(Cl)c(S(=O)(=O)N3CCOCC3)c2)cc1 |  | 13 µM [rising, partial curve] |  |
| CC(C)=CCc1c(O)c(CC=C(C)C)c2c(c1O)C(=O)CC(c1ccc(O)cc1)O2 (centres undefined) | -31.3% |  | 29.1 µM [falling, single point] |
| Cc1ccc(OS(=O)(=O)c2ccc(N3C(=O)CCC3=O)cc2)cc1 | -9.21% | 5.62 µM [rising, single point] | 0.00461 µM [falling, full curve, poor fit] |
| CCN(CC(=O)Nc1ccc(NC(C)=O)cc1)C(=O)CCCOc1ccc(C(C)(C)C)cc1 | 13.5% | 29.1 µM [falling, single point] |  |
| CC(NS(=O)(=O)OCC(Cl)(Cl)Cl)c1ccc(Br)cc1 (centres undefined) | -20.4% |  |  |
| Cc1ccc(NC(=O)CSc2nnc([C@H](C)NC(=O)OC(C)(C)C)o2)c(C)c1 | -7.84% | 2.91 µM [rising, single point] |  |
| Fc1ccc(NC(=S)Nc2ccc(Cl)cc2)cc1 | -24.9% |  | 4.11 µM [falling, full curve, poor fit] |
| Cc1ccc(C)c(OCC(=O)NCCN(C)C)c1 | 33% | 0.731 µM [falling, full curve] | 4.11 µM [falling, single point] |
| Cc1ccc(Nc2cc(C)nc3ncnn23)c(C)c1 | 0.587% | 29.1 µM [falling, single point] |  |
| Cc1ccc(OCCn2c(C3CC(=O)N(Cc4ccccc4)C3)nc3ccccc32)cc1 (centres undefined) | 26% |  |  |
| O=C(O)CSc1ncnc2scc(-c3ccccc3)c12 | 23.1% | 0.0651 µM [rising, full curve, poor fit] |  |
| NC(=O)c1cc([N+](=O)[O-])ccc1NCCN1C(=O)c2ccc(C(=O)O)cc2C1=O | 6.5% | 6.51 µM [falling, single point] | 6.51 µM [falling, single point] |
| CSc1cccc(NC(=O)Nc2ccccc2)c1 | -1.36% |  |  |
| C=CCNC(=O)/C=C/c1ccc(C(C)C)cc1 | 15.4% | 3.66 µM [rising, partial curve, poor fit] |  |
| O=C(Cn1nc(C(F)F)cc1C(F)F)NNC(=S)Nc1ccc(F)cc1 | -11.6% | 0.731 µM [falling, full curve, poor fit] |  |
| O=C(C1COc2ccccc2O1)N1CCN(S(=O)(=O)c2ccccc2)CC1 (centres undefined) | -1.03% |  |  |
| Cc1nnc(SCC(=O)NC2CCCCC2)n1C1CCCCC1 |  | 29.1 µM [rising, single point] |  |
| O=C(CSC1=Nc2ccccc2C2=NC(CC(=O)NC3CCCCC3)C(=O)N12)NCc1ccco1 (centres undefined) | 4.56% | 29.1 µM [rising, single point] |  |
| N#CCCN(CC(=O)O)S(=O)(=O)c1ccccc1 | -50.9% | 5.17 µM [falling, full curve] | 5.8 µM [falling, full curve] |
| CCOc1ccc(S(=O)(=O)c2c[nH]c3ccccc3c2=O)cc1 | 48.6% |  | 29.1 µM [rising, single point] |

| Compound | cell number change | AC50 [1] | AC50 [2] |
| --- | --- | --- | --- |
| COC(=O)C(Cc1c[nH]c2ccccc12)NC(=O)c1ccc2nc[nH]c2c1 (centres undefined) | -14.6% |  |  |
| COc1cc(C(c2oc(CO)cc(=O)c2O)c2oc(CO)cc(=O)c2O)cc(OC)c1OC | -42.6% |  | 0.13 µM [rising, full curve, poor fit] |
| O=C(Cc1ccccc1Cl)N1CCOCC1 | -22.8% |  |  |
| C=CCNC(=O)CSc1nnc(C(CC)N(C)C)n1C1CCCCC1 (centres undefined) | 26.5% | 0.0082 µM [rising, full curve, poor fit] |  |
| CC(C)c1ccc(NC2=CC(=O)CC(C)(C)C2)cc1 | -39.7% | 16.4 µM [falling, partial curve] |  |
| CCc1nnc(NC(=O)CSc2nnc(COc3ccc(C)cc3)n2-c2ccccc2)s1 | -11.2% |  | 3.26 µM [rising, single point] |
| CN(C(=O)c1cc2ccccc2cc1O)C1CCCCC1 | 18.5% |  |  |
| COc1ccc(Cc2nnc(Nc3ccc(C)cc3C)[nH]c2=O)cc1 | -141% |  |  |
| O=C(Nc1cccc(-c2nc3ccccc3s2)c1)C1=COCCO1 | 11% | 18.4 µM [rising, partial curve, poor fit] |  |
| Cc1[nH]oc(=O)c1N=Nc1c(Cl)cccc1Cl | -18.8% |  |  |
| CN1N=C2c3ccccc3CCC2C1c1ccc(Cl)cc1 (centres undefined) | 33.2% |  | 18.4 µM [rising, partial curve, poor fit] |
| COC(=O)c1cccc(Nc2c3c(nc4ccccc24)CCC3)c1 | 15.3% | 29.1 µM [rising, single point] |  |
| CCn1ccnc1CN(C)Cc1c(C(=O)N2CCCCCCC2)nc2ccc(Cl)cn12 | 2.93% |  |  |
| COc1ccc(C)cc1S(=O)(=O)N(CC(N)=O)Cc1ccccc1 |  | 0.731 µM [falling, single point] |  |
| C/C(=N\Nc1ccc(C(F)(F)F)cc1[N+](=O)[O-])C(C)C | -24.2% |  |  |
| Cc1ccnc(NC(=O)Cn2c(=O)oc3cc(S(=O)(=O)N4CCCC4)ccc32)c1 | -11.4% | 0.00461 µM [falling, full curve, poor fit] |  |
| Cc1cc2c3c([nH]c2cc1S(=O)(=O)NCCCOC(C)C)CC(C)(C)CC3=O | 14.2% |  | 1.64 µM [rising, partial curve] |
| COc1ccc(-c2cc3ncnc(Cl)c3s2)cc1 | 0.403% |  |  |
| COc1ccc(-n2cnnc2SCC(=O)Nc2cc(C(C)(C)C)nn2-c2ccccc2)cc1 | -22.8% | 6.51 µM [falling, single point] | 3.26 µM [falling, full curve, poor fit] |
| CC(C)c1ccc(NC(=O)Cn2cccc2C2=NC(c3ccccc3)CO2)cc1 (centres undefined) | 60% |  | 11.6 µM [rising, partial curve, poor fit] |
| COC(=O)CSc1nnc(COc2ccc([N+](=O)[O-])cc2)n1C | -6.62% | 0.00517 µM [falling, full curve, poor fit] |  |

Another view of part of the listing above.
Compound	cell number change	AC50 [1]	AC50 [2]
C=CCNC(=O)CSc1nnc(C(CC)N(C)C)n1C1CCCCC1 (centres undefined)	26.5%	0.0082 µM [rising, full curve, poor fit]	
CC(C)c1ccc(NC2=CC(=O)CC(C)(C)C2)cc1	-39.7%	16.4 µM [falling, partial curve]	
CCc1nnc(NC(=O)CSc2nnc(COc3ccc(C)cc3)n2-c2ccccc2)s1	-11.2%		3.26 µM [rising, single point]
CN(C(=O)c1cc2ccccc2cc1O)C1CCCCC1	18.5%		
COc1ccc(Cc2nnc(Nc3ccc(C)cc3C)[nH]c2=O)cc1	-141%		
O=C(Nc1cccc(-c2nc3ccccc3s2)c1)C1=COCCO1	11%	18.4 µM [rising, partial curve, poor fit]	
Cc1[nH]oc(=O)c1N=Nc1c(Cl)cccc1Cl	-18.8%		
CN1N=C2c3ccccc3CCC2C1c1ccc(Cl)cc1 (centres undefined)	33.2%		18.4 µM [rising, partial curve, poor fit]
